{"source": "patent US20100174075A1", "about": "“USE OF NITRIC OXIDE-RELEASING STATINS IN THE TREATMENT OF PULMONARY ARTERIAL HYPERTENSION” (NICOX S.A., priority 2007, published 2010)", "test_system": "Endothelin-1 (ET-1) release from PASMCs", "experiment": "TGF-β1-stimulated ET-1 release from PASMCs (chemiluminescent immunoassay)", "assay_type": "cell-based, human", "settings": "TGF-β1 10 ng/ml, Table 2 summary", "procedure": "Endothelin-1 (ET-1) release from PASMCs was measured in conditioned media using a chemiluminescent immunoassay system (QuantiGlo®, R&D Systems, UK). Cells were grown to confluence in 24-well plates (5×10^4 cells per well) in DMEM containing 10% FBS and serum-deprived for 24-hours prior to stimulation with transforming growth factor-[…] (TGF-β1) (10 ng/ml) and treatment with pravastatin and NO-releasing pravastatin (Example 1 of WO 2004/105754). Release experiments were also conducted in the presence of mevalonic acid (MVA), farnesylpyrophosphate (FPP), geranylgeranylpyrophosphate (GGPP) and inhibitors of geranylgeranyl transferase (GGTI-2133), farnesyl transferase (FTI-277) and Rho Kinase (Y27632). Production of MMP-9 was induced by dual stimulation with tumour necrosis factor-α (TNF-α) (10 ng/ml) and phorbol 12-[…] 13-acetate (PMA) (0.1 μM) and measured in conditioned medium using a Biotrack® ELISA-based immunoassay (GE Healthcare, UK). In the presence of TGF-β1 (10 ng/ml), ET-1 production by PASMCs increased markedly, compared with control serum-deprived cells.", "note": "At least one structure is not confirmed: it was looked up by name or label, or the drawing left a doubt.", "data": [{"smiles": "CC[C@H](C)C(=O)O[C@H]1C[C@H](O)C=C2C=C[C@H](C)[C@H](CC[C@@H](O)C[C@@H](O)CC(=O)O)[C@H]21", "note": "[Pravastatin]", "values": [{"measurement": "Effect on ET-1 release (in words)", "value": "had not effect"}]}]}
